Measured data: PubChem BioAssay AID743121 (NCATS, 2013)

- Aim: 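Knock-downs that sensitise breast cancer cells to camptothecin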 (primary screen)
- Cell system: MDA-MB-231 cells, a human breast cancer line
- Reagents: single siRNA against human genes, 20 nM siRNA (0.8 pmol per well)
- Time to read-out: 120 h (drug added 48 h after transfection, read 72 h later)
- Treatment: camptothecin 20 nM (about EC30) for 72 h; vehicle 0.1% DMSO in parallel plates
- Detection: 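CellTiter-Glo ATP signal, scaled to control siRNA as percent viability; sensitisation given as log2 of untreated divided by camptothecin-treated viability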
- Reading the numbers: log2 vehicle/camptothecin viability: higher = stronger sensitisation to camptothecin
- Hit rule: 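Active genes have an RSA gene-level p-value below 0.001, computed from the ratios of their separate siRNAs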
In all, the deposit lists about 26,000 reagents; shown is a random part of them. 167 of all reagents (0.63%) were called active. 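Calls are per gene from RSA p-values that are not deposited; an individual active-marked siRNA can sensitise only weakly.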 Reagents against one gene are numbered here. Further read-outs or replicates are left out here.

log2 vehicle/camptothecin viability, by gene and reagent
TBK1: #1 -0.236 inactive; #2 -0.266 inactive; #3 0.105 inactive; #4 -0.123 inactive
LIPH: #1 0.465 inactive; #2 -0.488 inactive; #3 -0.0307 inactive; #4 -0.00357 inactive
G6PC2: #1 -0.211 inactive; #2 0.84 inactive; #3 -0.394 inactive; #4 0.285 inactive
BAD: #1 -0.232 inactive; #2 -0.099 inactive; #3 -0.485 inactive; #4 0.00542 inactive
LGR4: #1 -0.142 inactive; #2 0.133 inactive; #3 -0.0247 inactive; #4 -0.234 inactive
F7: #1 -0.00185 inactive; #2 -0.0624 inactive; #3 -0.449 inactive; #4 -0.283 inactive
AS3MT: #1 -0.0943 inactive; #2 0.0981 inactive; #3 -0.315 inactive; #4 0.107 inactive

Reformatted: results already given.
{"Gene": "TBK1", "siRNA no.": 3, "log2 vehicle/camptothecin viability": 0.105, "activity call": "inactive"}
{"Gene": "TBK1", "siRNA no.": 4, "log2 vehicle/camptothecin viability": -0.123, "activity call": "inactive"}
{"Gene": "LIPH", "siRNA no.": 1, "log2 vehicle/camptothecin viability": 0.465, "activity call": "inactive"}
